Source: PubChem BioAssay AID1347423 (Functional Genomics Laboratory (NCATS/FGL), 2020)
In all, about 52,000 sequences went through this assay and about 210 (0.4%) were called active.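 The calls were made as follows: active = gene whose silencing raises cell survival under the drug, median off-target-corrected z-score across its silencing RNAs 2 or more; inactive = the rest.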 The list shows a part of the results.

test: Resistance to Poly (ADP-Ribose) Polymerase inhibitor: Gene Identification via Genome-wide siRNA Screen; conditions: mouse BRCA2 R2336H ES cells, olaparib, CellTiter-Glo viability; hits give high values
Method in brief: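 Genome-wide siRNA screen (3 siRNAs/gene, 20 nM) in mouse ES cells carrying hypomorphic BRCA2 R2336H; olaparib 500 nM added 48 h post-transfection, CellTiter-Glo viability 72 h later. Normalized to plate-median negative control; MAD z-scores, gene median, seed-adjusted.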

Sequence	z-score
GCCUCAAACCAUCAUACUUTT against Ppp1r13b	inactive: 0.376
GCCUUUGAGAGCAGCCAGATT against 0610043B10Rik	inactive: -0.266
GGCAGAAUUACAUUUAACATT against Grik2	inactive: 0.355
GGCCACAACAGAGAUUAAATT against Bank1	inactive: 0.221
GGAGUUGAUUGAAAUCAUCTT against Atp5c1	inactive: -1.13
GCAAAAGUGUAUCAUGAUGTT against Olfr1052	inactive: -0.189
GGACUUGGCUCCUUACCUGTT against G431004K08Rik	inactive: -0.996
GGCUCUUUACAGAUAUUCCTT against 2810404F18Rik	inactive: 0.493
GGGAUAUGAAAUCAUUUUCTT against Cyld	inactive: 0.393
GGCUGAAAAUAUUUUCAGATT against Garnl3	inactive: 0.354
GGUCAGAACCCUAAAGACCTT against Tbcd	inactive: -0.807
GCAUACGUGUUCAAUGGUGTT against Ppef2	inactive: 0.993
GGCUCUGAGCUACAUCUUUTT against Trex2	inactive: 1.08
GGCACAAUUAACAAGAAAATT against Pfn2	inactive: -0.401
GGUUAUUUUACAUGAGUACTT against Il15	inactive: -1.71
GGCAUUCAAACCUCUCGUGTT against Dcn	inactive: 0.695
GGAUGAACUUUCCUAAGUUTT against R75581	inactive: -1.85
CCUCAUUGUAGUCACCCUCTT against Olfr91	inactive: 1.62
UCGAGUGAAGCAGUCUCCATT against 5730507A09Rik	inactive: 0.0395
GGAACCCAACAUUGCCAAGTT against Ier3	inactive: -0.51
GCGGACUGUUUUGAUACAUTT against Papd1	inactive: -0.835
CCUAGAGAACUUUCUUCUUTT against Olfr385	inactive: 0.586
GGAAAUCGAUUCUCAUGAUTT against St6gal2	inactive: 1.29
GGCCGGAGCUUACGAUUUUTT against Camk2d	inactive: -1.11
GCCAUACACAGUGGCAUAATT against BC052046	inactive: -2.02
GGAGACAGUGGUAUUUUGATT against Birc5	inactive: -1.51
GCUGCAUAGAAUGACACGATT against Pip5kl1	inactive: -0.122
GGAAAACACUUUAAACCAGTT against Afg3l1	inactive: -1.99
GCUAUGGAACAGUCUGUCCTT against Clecsf5	inactive: 2.28

In a second layout: results already given.

| Sequence | z-score |
| --- | --- |
| GGAAAUCGAUUCUCAUGAUTT against St6gal2 | inactive: 1.29 |
| GGCCGGAGCUUACGAUUUUTT against Camk2d | inactive: -1.11 |
